Assay results reported in US10385072B2, “Gold(III) complexes as anticancer agents and a method of treating cancer” (King Fahd University of Petroleum and Minerals, priority 2017, dated 2019).
Some results were stated once for a whole list of compounds, not compound by compound. At least one compound was matched to its structure with a doubt left.

System: NSCLC cell lines (H460, A549, H226, H838, H157, H1975, H2122, SKLU1 and H1299)
Assay: Cell proliferation assay, NSCLC panel grouped by p53 status
Type: cell-based, human
Source text: Hodgkin's lymphoma cell line (L-540) and human androgen-resistant prostate cancer cell line (PC3) were obtained from the German Collection of Microorganisms and Cell Cultures (Braunschweig, Germany). Human breast adenocarcinoma cell line MCF-7 cell line (HTB-22™) was obtained from the American Type Culture Collection (ATCC, Rockville, Md., USA). Human ovarian epithelial carcinoma-derived cancer cells A2780 and its cisplatin-resistant clone A2780cis were from Sigma Inc (St. Louis, Mo., USA), and the isogenic cisplatin-resistant 2780CP-16 cells were cultured as previously described (Siddik, Z. H.; Mims, B.; Lozano, G.; Thai, G. Independent pathways of p53 induction by cisplatin and X-rays in a cisplatin-resistant ovarian tumor cell line. Cancer Res. 1998, 58, 698-703, incorporated herein by reference in its entirety). A panel of non-small cell lung cancer (NSCLC) cell lines (H460, A549, H226, H838, H157, H1975, H2122, SKLU1 and H1299) was obtained from Dr. Garth Powis at MD Anderson Cancer Center. […]
PC3 and MCF-7 cells (2.5×10^3), A2780, A2780cis (4.0×10^3), A2780CP-16 and lung cancer cells (H460, A549, H226, H838, H157, H1975, H2122, SKLU1 and H1299) were seeded in 96-well flat-bottomed microplates (100 μL) and incubated for 24 h (to allow cell adhesion) before drug testing. […] After treatment, cell proliferation was evaluated by the MTS assay (Promega). […]

SMILES: CN(C)C(=S)[S][Au+2].Cc1ccc(-c2ccc(C)cn2)nc1.[Cl-].[Cl-] [Compound 4]
- greater potency than compounds 3, 6 and 9 (all NSCLC cell lines): at least 10 fold
- IC50 (range over the NSCLC panel (WT-, Mut- and Null-p53)): 0.16 to 4.1 µM
